Values from PubChem BioAssay AID1259405 (NCATS, 2018).

- Aim: 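Silenced genes that increase secreted GFP made by CHO cells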 (primary screen)
- Cells: Chinese hamster CHO-K1 ovary cells with stable secreted eGFP expression
- Reagents: single siRNA against mouse genes, 0.8 pmol siRNA per well (2 µl of 400 nM stock)
- Duration: 3 days
- Measurement: 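Per-well intracellular GFP measured by laser scanning cytometry, plus viability from ATP luminescence, each relative to plate median of non-targeting control wells, in %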
- Reading the numbers: GFP, % of control: higher = more GFP per well, higher productivity; viability (ATP), % of control: higher = more viable cells (more ATP)
- Active means: 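Called active when intracellular GFP, relative to negative control, is at or above 120%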
Shown is one part, drawn at random, of about 50,000 reagents. About 4,000 of all reagents (8%) were called active. 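Mouse siRNA library applied to hamster cells; one well for each siRNA.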 A number with no mark means an inactive call. Reagents against one gene are numbered here.

no.	gene symbol	reagent no.	GFP, % of control	viability (ATP), % of control
1	Card14	1	121 (active)	161
2	Card14	2	172 (active)	82.7
3	Srrm4	1	69.2	65.3
4	Srrm4	2	80.5	83.3
5	Srrm4	3	60.8	17.2
6	Snap47	1	88	69.5
7	Snap47	2	66.5	58
8	Snap47	3	93.6	90.5
9	Spmip8	1	57.5	74.8
10	Spmip8	2	94.6	73.7
11	Spmip8	3	64.4	65.8
12	Idua	1	59.3	94.4
13	Idua	2	59.1	110
14	Idua	3	81.9	92.6
15	Kif3b	1	66.2	70.1
16	Kif3b	2	76.4	93.3
17	Rab11fip5	1	65	87.5
18	Rab11fip5	2	61.7	64.8
19	Rab11fip5	3	110	98.5
20	Oprl1	1	85.1	85.6
21	Oprl1	2	78.2	75.4
22	Oprl1	3	79.6	69.9
23	Ovch2	1	61.9	43.8
24	Ovch2	2	73.6	83.9
25	Ovch2	3	86.7	83.3
26	Trp53bp1	1	44.7	47.9
27	Trp53bp1	2	48.8	49.3
28	Trp53bp1	3	34.9	49.2
29	Nptxr	1	78.4	140
30	Nptxr	2	83.2	82.6
31	Pcdhga12	1	93.2	88.3
32	Pcdhga12	2	63.1	77.5
33	Pcdhga12	3	74.9	76.3
34	Ahcyl1	1	35	47.8
35	Ahcyl1	2	73.4	80.3
36	Klhl25	1	61.1	72.6
37	Klhl25	2	53.8	63.8
38	Klhl25	3	68.4	59.9
39	Kynu	1	125 (active)	31.7
40	Kynu	2	99.5	87.1
41	Kynu	3	62.9	48.5
42	Nos1	1	77.4	77.3
43	Nos1	2	85.1	61.9
44	Or2y3	1	50.8	37.3
45	Or2y3	2	53.5	45.6
46	Or2y3	3	45.4	89.1
47	Sertad4	1	38	73.3
48	Sertad4	2	49.1	63.8
49	Sertad4	3	48.2	66.6
50	Fads3	1	60.9	61.1
51	Fads3	2	80.7	85.9
52	Fads3	3	88.2	84.3
53	Dock9	1	78.9	46
54	Dock9	2	90.3	98.2
55	Dock9	3	45.3	58
56	Ube2e2	1	90.6	86.1
57	Ube2e2	2	72.4	75.6
58	Ube2e2	3	79.9	115
59	Prdm4	1	102	112
60	Prdm4	2	53	78.7
61	Prdm4	3	98.4	116
62	A530095I07Rik	1	62.9	44
63	A530095I07Rik	2	81.9	86.5
64	A530095I07Rik	3	80.4	98.8
65	Brdt	1	98.5	106
66	Brdt	2	55.1	52.2
67	Brdt	3	84.6	78
68	Slc15a4	1	106	96.7
69	Slc15a4	2	51.7	82.2
70	Slc15a4	3	78.6	89.5
71	Homer1	1	137 (active)	77.8
72	Homer1	2	94.2	86.9
73	Homer1	3	84.4	84.5
74	Cd300c	1	67.8	72
75	Cd300c	2	67.4	78.6
76	Cd300c	3	105	103
77	Vwc2	1	56.3	53.2
78	Vwc2	2	82.5	92.5
79	Vwc2	3	75.7	67.8
80	Fmnl2	1	47.8	71
81	Fmnl2	2	74.5	79.6
82	Fmnl2	3	52.4	73
83	Fam53b	1	85.4	101
84	Fam53b	2	57	79.8

Only “GFP, % of control” (7 entries from above):
Nos1 #1 = 77.4
Nos1 #2 = 85.1
Or2y3 #1 = 50.8
Or2y3 #2 = 53.5
Or2y3 #3 = 45.4
Sertad4 #1 = 38
Sertad4 #2 = 49.1
